Target: T1, 5-HT receptor in human colon longitudinal muscle (Homo sapiens, UniProt P41595)
T1 construct: Longitudinal muscle strips (2mm wide by 20mm long) were then cut from the tissue between the taenia coli; from tissue; host or cells: human colon longitudinal muscle strips, electrically stimulated
Format: cell-based
Conditions: antagonism of 5-HT in electrically-stimulated strips; at least 3 donors (RS127445: n>4 donors)

Chains of the proteins cited; added tags and fusions are not shown.
UniProt P41595, whole entry: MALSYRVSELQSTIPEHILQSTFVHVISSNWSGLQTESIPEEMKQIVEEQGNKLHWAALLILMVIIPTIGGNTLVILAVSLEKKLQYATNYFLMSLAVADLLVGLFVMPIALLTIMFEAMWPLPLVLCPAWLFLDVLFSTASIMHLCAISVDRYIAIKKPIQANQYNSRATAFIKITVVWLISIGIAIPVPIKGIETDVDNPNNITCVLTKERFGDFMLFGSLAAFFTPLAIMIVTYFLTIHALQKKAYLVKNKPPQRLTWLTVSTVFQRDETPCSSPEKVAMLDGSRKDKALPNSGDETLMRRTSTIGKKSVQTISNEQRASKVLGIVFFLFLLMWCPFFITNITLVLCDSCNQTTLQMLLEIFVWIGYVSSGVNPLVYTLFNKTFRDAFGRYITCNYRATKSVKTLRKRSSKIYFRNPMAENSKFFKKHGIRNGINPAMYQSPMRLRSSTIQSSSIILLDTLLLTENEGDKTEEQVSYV

CC[C@@H](CO)NC(=O)[C@@H]1C=C2c3cccc4c3c(cn4C)C[C@H]2N(C)C1 [Methysergide]
Affinity (pKB) at the 5-HT receptor in human colon longitudinal muscle: NSA at -9M
